Results published in US20150086999A1.
These are yes or no findings as the source states them, for the method shown. Some binding calls cover weakened binding; strength is not graded here.

Experiments:
[1] = biological target: recombinant lipoprotein-associated phospholipase A2 (rLp-PLA2) expressed in HEK293 cells (UniProt Q13093); test: EGS chemical cross-linking, SDS-PAGE and Western blot; self-association
[2] = biological target: recombinant lipoprotein-associated phospholipase A2 (rLp-PLA2) expressed in HEK293 cells (UniProt Q13093); test: EGS chemical cross-linking, SDS-PAGE and Western blot; self-association (the same experiment as told in the summary)

B1: recombinant lipoprotein-associated phospholipase A2 (rLp-PLA2) expressed in HEK293 cells (enzyme, UniProt Q13093 22-441, looked up)
chain: FDWQYINPVAHMKSSAWVNKIQVLMAAASFGQTKIPRGNGPYSVGCTDLMFDHTNKGTFLRLYYPSQDNDRLDTLWIPNKEYFWGLSKFLGTHWLMGNILRLLFGSMTTPANWNSPLRPGEKYPLVVFSHGLGAFRTLYSAIGIDLASHGFIVAAVEHRDRSASATYYFKDQSAAEIGDKSWLYLRTLKQEEETHIRNEQVRQRAKECSQALSLILDIDHGKPVKNALDLKFDMEQLKDSIDREKIAVIGHSFGGATVIQTLSEDQRFRCGIALDAWMFPLGDEVYSRIPQPLFFINSEYFQYPANIIKMKKCYSPDKERKMITIRGSVHQNFADFTFATGKIIGHMLKLKGDIDSNVAIDLSNKASLAFLQKHLGLHKDFDQWDCLIEGDDENLIPGTNINTTNQHIMLQNSSGIEKYN
- binding [1]: binds
- binding [2]: binds
